# Test results: patent US9284543B2, “Neutral active soluble truncated PH20 polypeptides and uses thereof” (Halozyme, Inc., priority 2008, dated 2016)
# B1: SPAM1-TMFI: C-terminally truncated human PH20, precursor 495 aa (SEQ ID NO:9), mature 460 aa (SEQ ID NO:61) (protein, listed as Homo sapiens)
# chain 1: MGVLKFKHIFFRSFVKSSGVSQIVFTFLLIPCCLTLNFRAPPVIPNVPFLWAWNAPSEFCLGKFDEPLDMSLFSFIGSPRINATGQGVTIFYVDRLGYYPYIDSITGVTVNGGIPQKISLQDHLDKAKKDITFYMPVDNLGMAVIDWEEWRPTWARNWKPKDVYKNRSIELVQQQNVQLSLTEATEKAKQEFEKAGKDFLVETIKLGKLLRPNHLWGYYLFPDCYNHHYKKPGYNGSCFNVEIKRNDDLSWLWNESTALYPSIYLNTQQSPVAATLYVRNRVREAIRVSKIPDAKSPLPVFAYTRIVFTDQVLKFLSQDELVYTFGETVALGASGIVIWGTLSIMRSMKSCLLLDNYMETILNPYIINVTLAAKMCSQVLCQEQGVCIRKNWNSSDYLHLNPDNFAIQLEKGGKFTVRGKPTLEDLEQFSEKFYCSCYSTLSCKEKADVKDTDAVDVCIADGVCIDAFLKPPMETEEPQIFYNASPSTLSATMFI
# chain 2: LNFRAPPVIPNVPFLWAWNAPSEFCLGKFDEPLDMSLFSFIGSPRINATGQGVTIFYVDRLGYYPYIDSITGVTVNGGIPQKISLQDHLDKAKKDITFYMPVDNLGMAVIDWEEWRPTWARNWKPKDVYKNRSIELVQQQNVQLSLTEATEKAKQEFEKAGKDFLVETIKLGKLLRPNHLWGYYLFPDCYNHHYKKPGYNGSCFNVEIKRNDDLSWLWNESTALYPSIYLNTQQSPVAATLYVRNRVREAIRVSKIPDAKSPLPVFAYTRIVFTDQVLKFLSQDELVYTFGETVALGASGIVIWGTLSIMRSMKSCLLLDNYMETILNPYIINVTLAAKMCSQVLCQEQGVCIRKNWNSSDYLHLNPDNFAIQLEKGGKFTVRGKPTLEDLEQFSEKFYCSCYSTLSCKEKADVKDTDAVDVCIADGVCIDAFLKPPMETEEPQIFYNASPSTLSATMFI
# modifications: HuPH20 precursor 1-495; esHuPH20 36-495
# B2: SPAM1-SATM: C-terminally truncated human PH20, precursor 493 aa (SEQ ID NO:10), mature 458 aa (SEQ ID NO:62) (protein, listed as Homo sapiens)
# chain 1: MGVLKFKHIFFRSFVKSSGVSQIVFTFLLIPCCLTLNFRAPPVIPNVPFLWAWNAPSEFCLGKFDEPLDMSLFSFIGSPRINATGQGVTIFYVDRLGYYPYIDSITGVTVNGGIPQKISLQDHLDKAKKDITFYMPVDNLGMAVIDWEEWRPTWARNWKPKDVYKNRSIELVQQQNVQLSLTEATEKAKQEFEKAGKDFLVETIKLGKLLRPNHLWGYYLFPDCYNHHYKKPGYNGSCFNVEIKRNDDLSWLWNESTALYPSIYLNTQQSPVAATLYVRNRVREAIRVSKIPDAKSPLPVFAYTRIVFTDQVLKFLSQDELVYTFGETVALGASGIVIWGTLSIMRSMKSCLLLDNYMETILNPYIINVTLAAKMCSQVLCQEQGVCIRKNWNSSDYLHLNPDNFAIQLEKGGKFTVRGKPTLEDLEQFSEKFYCSCYSTLSCKEKADVKDTDAVDVCIADGVCIDAFLKPPMETEEPQIFYNASPSTLSATM
# chain 2: LNFRAPPVIPNVPFLWAWNAPSEFCLGKFDEPLDMSLFSFIGSPRINATGQGVTIFYVDRLGYYPYIDSITGVTVNGGIPQKISLQDHLDKAKKDITFYMPVDNLGMAVIDWEEWRPTWARNWKPKDVYKNRSIELVQQQNVQLSLTEATEKAKQEFEKAGKDFLVETIKLGKLLRPNHLWGYYLFPDCYNHHYKKPGYNGSCFNVEIKRNDDLSWLWNESTALYPSIYLNTQQSPVAATLYVRNRVREAIRVSKIPDAKSPLPVFAYTRIVFTDQVLKFLSQDELVYTFGETVALGASGIVIWGTLSIMRSMKSCLLLDNYMETILNPYIINVTLAAKMCSQVLCQEQGVCIRKNWNSSDYLHLNPDNFAIQLEKGGKFTVRGKPTLEDLEQFSEKFYCSCYSTLSCKEKADVKDTDAVDVCIADGVCIDAFLKPPMETEEPQIFYNASPSTLSATM
# modifications: HuPH20 precursor 1-493; esHuPH20 36-493
# B3: SPAM1-TLSA: C-terminally truncated human PH20, precursor 491 aa (SEQ ID NO:11), mature 456 aa (SEQ ID NO:63) (protein, listed as Homo sapiens)
# chain 1: MGVLKFKHIFFRSFVKSSGVSQIVFTFLLIPCCLTLNFRAPPVIPNVPFLWAWNAPSEFCLGKFDEPLDMSLFSFIGSPRINATGQGVTIFYVDRLGYYPYIDSITGVTVNGGIPQKISLQDHLDKAKKDITFYMPVDNLGMAVIDWEEWRPTWARNWKPKDVYKNRSIELVQQQNVQLSLTEATEKAKQEFEKAGKDFLVETIKLGKLLRPNHLWGYYLFPDCYNHHYKKPGYNGSCFNVEIKRNDDLSWLWNESTALYPSIYLNTQQSPVAATLYVRNRVREAIRVSKIPDAKSPLPVFAYTRIVFTDQVLKFLSQDELVYTFGETVALGASGIVIWGTLSIMRSMKSCLLLDNYMETILNPYIINVTLAAKMCSQVLCQEQGVCIRKNWNSSDYLHLNPDNFAIQLEKGGKFTVRGKPTLEDLEQFSEKFYCSCYSTLSCKEKADVKDTDAVDVCIADGVCIDAFLKPPMETEEPQIFYNASPSTLSA
# chain 2: LNFRAPPVIPNVPFLWAWNAPSEFCLGKFDEPLDMSLFSFIGSPRINATGQGVTIFYVDRLGYYPYIDSITGVTVNGGIPQKISLQDHLDKAKKDITFYMPVDNLGMAVIDWEEWRPTWARNWKPKDVYKNRSIELVQQQNVQLSLTEATEKAKQEFEKAGKDFLVETIKLGKLLRPNHLWGYYLFPDCYNHHYKKPGYNGSCFNVEIKRNDDLSWLWNESTALYPSIYLNTQQSPVAATLYVRNRVREAIRVSKIPDAKSPLPVFAYTRIVFTDQVLKFLSQDELVYTFGETVALGASGIVIWGTLSIMRSMKSCLLLDNYMETILNPYIINVTLAAKMCSQVLCQEQGVCIRKNWNSSDYLHLNPDNFAIQLEKGGKFTVRGKPTLEDLEQFSEKFYCSCYSTLSCKEKADVKDTDAVDVCIADGVCIDAFLKPPMETEEPQIFYNASPSTLSA
# modifications: HuPH20 precursor 1-491; esHuPH20 36-491
# B4: SPAM1-STLS: C-terminally truncated human PH20, precursor 490 aa (SEQ ID NO:13), mature 455 aa (SEQ ID NO:65) (protein, listed as Homo sapiens)
# chain 1: MGVLKFKHIFFRSFVKSSGVSQIVFTFLLIPCCLTLNFRAPPVIPNVPFLWAWNAPSEFCLGKFDEPLDMSLFSFIGSPRINATGQGVTIFYVDRLGYYPYIDSITGVTVNGGIPQKISLQDHLDKAKKDITFYMPVDNLGMAVIDWEEWRPTWARNWKPKDVYKNRSIELVQQQNVQLSLTEATEKAKQEFEKAGKDFLVETIKLGKLLRPNHLWGYYLFPDCYNHHYKKPGYNGSCFNVEIKRNDDLSWLWNESTALYPSIYLNTQQSPVAATLYVRNRVREAIRVSKIPDAKSPLPVFAYTRIVFTDQVLKFLSQDELVYTFGETVALGASGIVIWGTLSIMRSMKSCLLLDNYMETILNPYIINVTLAAKMCSQVLCQEQGVCIRKNWNSSDYLHLNPDNFAIQLEKGGKFTVRGKPTLEDLEQFSEKFYCSCYSTLSCKEKADVKDTDAVDVCIADGVCIDAFLKPPMETEEPQIFYNASPSTLS
# chain 2: LNFRAPPVIPNVPFLWAWNAPSEFCLGKFDEPLDMSLFSFIGSPRINATGQGVTIFYVDRLGYYPYIDSITGVTVNGGIPQKISLQDHLDKAKKDITFYMPVDNLGMAVIDWEEWRPTWARNWKPKDVYKNRSIELVQQQNVQLSLTEATEKAKQEFEKAGKDFLVETIKLGKLLRPNHLWGYYLFPDCYNHHYKKPGYNGSCFNVEIKRNDDLSWLWNESTALYPSIYLNTQQSPVAATLYVRNRVREAIRVSKIPDAKSPLPVFAYTRIVFTDQVLKFLSQDELVYTFGETVALGASGIVIWGTLSIMRSMKSCLLLDNYMETILNPYIINVTLAAKMCSQVLCQEQGVCIRKNWNSSDYLHLNPDNFAIQLEKGGKFTVRGKPTLEDLEQFSEKFYCSCYSTLSCKEKADVKDTDAVDVCIADGVCIDAFLKPPMETEEPQIFYNASPSTLS
# modifications: HuPH20 precursor 1-490; mature HuPH20 36-490
# B5: SPAM1-PSTL: C-terminally truncated human PH20, precursor 489 aa (SEQ ID NO:12), mature 454 aa (SEQ ID NO:64) (protein, listed as Homo sapiens)
# chain 1: MGVLKFKHIFFRSFVKSSGVSQIVFTFLLIPCCLTLNFRAPPVIPNVPFLWAWNAPSEFCLGKFDEPLDMSLFSFIGSPRINATGQGVTIFYVDRLGYYPYIDSITGVTVNGGIPQKISLQDHLDKAKKDITFYMPVDNLGMAVIDWEEWRPTWARNWKPKDVYKNRSIELVQQQNVQLSLTEATEKAKQEFEKAGKDFLVETIKLGKLLRPNHLWGYYLFPDCYNHHYKKPGYNGSCFNVEIKRNDDLSWLWNESTALYPSIYLNTQQSPVAATLYVRNRVREAIRVSKIPDAKSPLPVFAYTRIVFTDQVLKFLSQDELVYTFGETVALGASGIVIWGTLSIMRSMKSCLLLDNYMETILNPYIINVTLAAKMCSQVLCQEQGVCIRKNWNSSDYLHLNPDNFAIQLEKGGKFTVRGKPTLEDLEQFSEKFYCSCYSTLSCKEKADVKDTDAVDVCIADGVCIDAFLKPPMETEEPQIFYNASPSTL
# chain 2: LNFRAPPVIPNVPFLWAWNAPSEFCLGKFDEPLDMSLFSFIGSPRINATGQGVTIFYVDRLGYYPYIDSITGVTVNGGIPQKISLQDHLDKAKKDITFYMPVDNLGMAVIDWEEWRPTWARNWKPKDVYKNRSIELVQQQNVQLSLTEATEKAKQEFEKAGKDFLVETIKLGKLLRPNHLWGYYLFPDCYNHHYKKPGYNGSCFNVEIKRNDDLSWLWNESTALYPSIYLNTQQSPVAATLYVRNRVREAIRVSKIPDAKSPLPVFAYTRIVFTDQVLKFLSQDELVYTFGETVALGASGIVIWGTLSIMRSMKSCLLLDNYMETILNPYIINVTLAAKMCSQVLCQEQGVCIRKNWNSSDYLHLNPDNFAIQLEKGGKFTVRGKPTLEDLEQFSEKFYCSCYSTLSCKEKADVKDTDAVDVCIADGVCIDAFLKPPMETEEPQIFYNASPSTL
# modifications: HuPH20 precursor 1-489; mature HuPH20 36-489
# B6: SPAM1-ASPS: C-terminally truncated human PH20, precursor 487 aa (SEQ ID NO:14), mature 452 aa (SEQ ID NO:66) (protein, listed as Homo sapiens)
# chain: MGVLKFKHIFFRSFVKSSGVSQIVFTFLLIPCCLTLNFRAPPVIPNVPFLWAWNAPSEFCLGKFDEPLDMSLFSFIGSPRINATGQGVTIFYVDRLGYYPYIDSITGVTVNGGIPQKISLQDHLDKAKKDITFYMPVDNLGMAVIDWEEWRPTWARNWKPKDVYKNRSIELVQQQNVQLSLTEATEKAKQEFEKAGKDFLVETIKLGKLLRPNHLWGYYLFPDCYNHHYKKPGYNGSCFNVEIKRNDDLSWLWNESTALYPSIYLNTQQSPVAATLYVRNRVREAIRVSKIPDAKSPLPVFAYTRIVFTDQVLKFLSQDELVYTFGETVALGASGIVIWGTLSIMRSMKSCLLLDNYMETILNPYIINVTLAAKMCSQVLCQEQGVCIRKNWNSSDYLHLNPDNFAIQLEKGGKFTVRGKPTLEDLEQFSEKFYCSCYSTLSCKEKADVKDTDAVDVCIADGVCIDAFLKPPMETEEPQIFYNASPS
# modifications: HuPH20 precursor 1-487
# Test system: CHO-S cells
# Test: Western blot analysis of PH20 expression in media and cells after transient expression
# Format: cell-based, Chinese Hamster
# Conditions: band at approximately 66 kDa
# Procedure, shortened: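 PH20 expression and solubility were judged by anti-PH20 Western blot of non-reduced media and cell fractions, with expression shown by a ~66 kDa band. Samples came from CHO-S cells transiently transfected (GeneJuice) with mutant PH20-HZ24 DNA and cultured 48-72 h. GPI-anchored mutants were cleaved with PI-PLC to release soluble protein.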
row,Molecule,Protein Expression
1,B1,YES
2,B2,YES
3,B3,YES
4,B4,YES
5,B5,YES
6,B6,YES
